Library screen at single concentrations

Measurements from “University of Dundee, Small-Polar-MMV Screening Library” (2021), ChEMBL document CHEMBL3988442.

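Assay of Toxoplasma gondii numbers, read through their beta-galactosidase reporter with a colour substrate. Tested at 50 µM. The record gives no direction; the compounds picked for IC50 retests had high values, so higher reads as fewer parasites. Of about 18,000 compounds tested this way, about 170 (0.94%) reached 50% or more in at least one test.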

The filed quantity is “Percent Effect” (%). The record does not define 0% and 100%; most values in the screen are far below 50% and negative numbers occur (in some assays of this library far below -100). The compounds are a random part of those screened.

compound: Cc1cc(NC(=O)NC2CCN(CC(C)C)CC2)no1
percent effect: -9.392

compound: O=C(CNC(=O)c1ccco1)NCCC1=CCCCC1
percent effect: -4.26

compound: CC(C)(C)C(=O)Nc1ccc(-n2cnnn2)cc1
percent effect: -4.842

compound: COc1cc(C(=O)Nc2nnc[nH]2)cc(Cl)c1OC
percent effect: 4.556

compound: CCOC(=O)c1cncnc1C(=O)OCC
percent effect: -11.07

compound: O=C(N[C@H]1CC[C@@H](CO)CC1)c1ccncc1F
percent effect: -3.466

compound: CC(C)C(NC(N)=O)C(=O)NCc1csc(Br)c1 (stereo not shown)
percent effect: 10.37

compound: Cc1cc2c(=O)[nH]cnc2cc1F
percent effect: 18.39

compound: CSCC[C@H](NC(C)=O)C(=O)NCCn1ccnc1C
percent effect: -11.73

compound: COCCNCc1ccc(OCC(N)=O)c(OC)c1
percent effect: -4.366

compound: OC(Cc1ccccc1)c1cccnc1 (stereo not shown)
percent effect: 27.06

compound: COc1cccc(C(C)NCC(=O)NC(C)C)c1 (stereo not shown)
percent effect: 13.92

compound: O=C(Cn1ncc2ccccc21)N1CCCC1CO (stereo not shown)
percent effect: -5.385

compound: C[C@@H](N)c1nnc2n1CCCCC2
percent effect: -3.547

compound: CCNC(=O)NCCCOCC1CCOC1 (stereo not shown)
percent effect: 12.08

compound: Cc1ccccc1CNC(=O)N(C)Cc1nnc[nH]1
percent effect: -3.326

compound: CN(Cc1ccco1)CC(O)COCc1cccs1 (stereo not shown)
percent effect: 1.757

compound: CC(CN)CC(F)(F)F (stereo not shown)
percent effect: -2.289

compound: O=C(Nc1c[nH]c(=O)[nH]c1=O)C1CCCO1 (stereo not shown)
percent effect: 1.187

compound: CCNC(=O)c1ccc2n1CCNC2C (stereo not shown)
percent effect: 6.076

compound: CCn1cc(NC(=O)NC2CCN(C3CC3)CC2)cn1
percent effect: 0.2024

compound: Cc1cc(N2CCNCC2)nc2ccccc12
percent effect: -12.84

compound: CCCNC(=O)c1cccc(CN)c1
percent effect: 15.1

compound: O=C(NCC1CCN(C2CC2)C1)Nc1nccs1 (stereo not shown)
percent effect: 5.011

compound: CSc1cc(NC(=O)NCCc2ccccn2)ccn1
percent effect: 3.885

compound: COc1c[nH]c(C(=O)NCCSC(F)(F)F)cc1=O
percent effect: 1.248

compound: NS(=O)(=O)c1ccc(CNC(=O)NCC(F)(F)F)cc1
percent effect: -11.52

compound: O=C(NCCOCC1CCC1)c1ncccc1Br
percent effect: 7.901

compound: COC(=O)CCNC(=O)C1CCCO1 (stereo not shown)
percent effect: -5.897

compound: Cc1cccc2c1N(C(=O)c1ccccn1)CCC2
percent effect: -6.578

compound: CC(C)C1c2nccn2CCCN1C(=O)c1cnco1 (stereo not shown)
percent effect: -23.45

compound: Cc1nccc(N2CCN(C(=O)C3CC=CC3)CC2)n1
percent effect: -0.8642

compound: CN1CCC(Oc2ccc(N)cn2)CC1
percent effect: -8.103

compound: NC(=O)CSc1nnc(-c2ccccc2)n1CCCO
percent effect: -4.536

compound: N[C@@H]1C[C@H]1c1cc(F)ccc1F
percent effect: -24.59

compound: CC(C(=O)N(C)C)c1ccc2c(c1)OCCO2 (stereo not shown)
percent effect: -2.748

compound: CC(C)=CCO[C@H]1CCOC[C@H]1NC(=O)c1cnc[nH]1
percent effect: 16.15

compound: O=c1n(Cc2ccccc2)nnn1-c1cccs1
percent effect: -12.1

compound: COc1ccc(C(=O)N2C[C@@H](CO)[C@H](N(C)C)C2)cn1
percent effect: 19.44

4 of the entries, repeated:

- COc1ccc(C(=O)N2C[C@@H](CO)[C@H](N(C)C)C2)cn1 | 19.44%
- OC(Cc1ccccc1)c1cccnc1 (stereo not shown) | 27.06%
- COc1c[nH]c(C(=O)NCCSC(F)(F)F)cc1=O | 1.248%
- O=C(CNC(=O)c1ccco1)NCCC1=CCCCC1 | -4.26%